A short description of this data set: physchem. The note with it: pH 2.7.

Turning to `c1csc(-c2cc[nH]n2)c1` [3-(2-Thienyl)-1H-pyrazole], the logP (commonly the decadic logarithm of the partition coefficient of the neutral form, usually between octanol and water) amounted to 1.3.

These data come from patent US8685974B2 (Bayer CropScience AG, priority 2009, dated 2014).
